Experiment [1] addresses Sp1 (human (endogenous in 293T)) (UniProt P08047). Description: co-IP; cell lysates (cell line not stated; NP-40) immunoprecipitated with anti-Sp1 or anti-HDAC3 (control IgG), overnight at 4 °C, protein A/G; Western blot for EZH2, HDAC3, Sp1.
Experiment [2] has as its target HA-tagged full-length HDAC3 (UniProt O15379). Description: co-IP; 293T cells transfected with HA-HDAC3; whole cell lysate (NP-40) immunoprecipitated with anti-HA or anti-EZH2 (control IgG), overnight at 4 °C, protein A/G; Western blot for HA, Sp1, EZH2, HDAC3.
Experiment [3] has as its target EZH2 (human (endogenous in 293T)) (UniProt Q15910). The experiment is described as above.
Experiment [4] addresses HDAC3 (human (endogenous; cell line not named, all cell lines of the paper are human)) (UniProt O15379). Description: co-IP; cell lysates (cell line not stated; NP-40) immunoprecipitated with anti-Sp1 or anti-HDAC3 (control IgG), overnight at 4 °C, protein A/G; Western blot for EZH2, HDAC3, Sp1.

Amino acid sequences for entries named in this document (tags omitted).
UniProt P08047: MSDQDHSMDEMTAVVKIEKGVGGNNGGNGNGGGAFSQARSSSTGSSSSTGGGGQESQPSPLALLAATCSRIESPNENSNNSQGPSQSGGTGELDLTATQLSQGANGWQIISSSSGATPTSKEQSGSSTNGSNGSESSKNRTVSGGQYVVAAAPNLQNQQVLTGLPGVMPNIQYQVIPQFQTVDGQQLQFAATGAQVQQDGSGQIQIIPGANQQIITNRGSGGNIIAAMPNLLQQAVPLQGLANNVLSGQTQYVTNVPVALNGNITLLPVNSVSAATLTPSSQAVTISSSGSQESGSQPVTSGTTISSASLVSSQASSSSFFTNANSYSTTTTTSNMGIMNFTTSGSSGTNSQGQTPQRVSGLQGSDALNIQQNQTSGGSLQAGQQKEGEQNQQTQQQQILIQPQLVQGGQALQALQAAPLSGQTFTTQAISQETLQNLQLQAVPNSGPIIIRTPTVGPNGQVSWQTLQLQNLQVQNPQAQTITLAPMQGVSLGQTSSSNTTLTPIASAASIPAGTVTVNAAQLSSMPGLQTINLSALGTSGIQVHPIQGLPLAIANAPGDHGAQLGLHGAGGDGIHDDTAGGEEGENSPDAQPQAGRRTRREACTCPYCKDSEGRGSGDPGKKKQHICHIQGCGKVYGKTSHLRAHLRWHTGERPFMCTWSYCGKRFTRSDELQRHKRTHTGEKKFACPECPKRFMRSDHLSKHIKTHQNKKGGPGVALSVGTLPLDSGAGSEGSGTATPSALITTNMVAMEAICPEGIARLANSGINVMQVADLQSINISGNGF
UniProt O15379: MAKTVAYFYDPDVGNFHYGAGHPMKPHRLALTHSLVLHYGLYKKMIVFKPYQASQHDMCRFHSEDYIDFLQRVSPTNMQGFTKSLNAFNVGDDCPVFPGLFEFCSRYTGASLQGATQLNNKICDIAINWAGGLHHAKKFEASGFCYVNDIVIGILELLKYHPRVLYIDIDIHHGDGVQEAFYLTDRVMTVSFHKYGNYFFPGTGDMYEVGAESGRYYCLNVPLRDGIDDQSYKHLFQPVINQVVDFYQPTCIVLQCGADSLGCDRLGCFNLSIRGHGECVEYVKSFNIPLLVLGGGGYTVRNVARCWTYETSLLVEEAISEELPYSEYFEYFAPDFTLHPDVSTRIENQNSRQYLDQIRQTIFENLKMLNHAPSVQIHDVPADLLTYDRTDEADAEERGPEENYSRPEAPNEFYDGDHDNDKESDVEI
UniProt Q15910: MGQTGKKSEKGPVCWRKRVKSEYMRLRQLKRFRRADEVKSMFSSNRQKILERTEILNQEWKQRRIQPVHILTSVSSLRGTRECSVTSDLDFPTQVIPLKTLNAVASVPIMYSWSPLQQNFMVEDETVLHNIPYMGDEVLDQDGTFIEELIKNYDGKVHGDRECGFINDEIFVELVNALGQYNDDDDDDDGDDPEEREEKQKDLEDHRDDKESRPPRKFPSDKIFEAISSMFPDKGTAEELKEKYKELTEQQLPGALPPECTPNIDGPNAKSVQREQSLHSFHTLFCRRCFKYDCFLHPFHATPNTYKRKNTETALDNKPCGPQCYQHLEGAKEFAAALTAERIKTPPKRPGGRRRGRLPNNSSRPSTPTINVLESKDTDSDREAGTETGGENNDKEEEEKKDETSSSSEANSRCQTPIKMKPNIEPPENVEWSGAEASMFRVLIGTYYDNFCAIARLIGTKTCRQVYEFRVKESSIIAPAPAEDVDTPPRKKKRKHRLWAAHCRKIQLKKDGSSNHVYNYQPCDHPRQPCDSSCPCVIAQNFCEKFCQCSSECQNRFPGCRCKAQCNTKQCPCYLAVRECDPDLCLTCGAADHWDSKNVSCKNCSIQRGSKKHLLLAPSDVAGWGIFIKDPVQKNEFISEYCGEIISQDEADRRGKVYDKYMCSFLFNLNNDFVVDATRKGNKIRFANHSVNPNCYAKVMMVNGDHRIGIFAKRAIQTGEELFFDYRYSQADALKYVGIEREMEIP

These are yes or no findings as the source states them, for the method shown. Binding seen in cells or lysates may run through a third protein. Some entries that bind do so weakly or less than the wild type.

HDAC3 (from UniProt O15379 1-428): the binding entry in experiment [1] is listed as “binds”.

As to Sp1 (from UniProt P08047 1-785), the binding entry in experiment [2], in experiment [3] and in experiment [4] was “binds” in each case.

Regarding “HA-tagged full-length HDAC3 (from UniProt O15379 1-428)”, the binding result in experiment [3] is on record as “binds”.

The values are drawn from article PMC7721101.
